In paper PMC10939263:
These are yes or no findings as the source states them, for the method shown. Binding seen in cells or lysates may run through a third protein. Some results given as binding are weak or reduced against the parent protein; the word gives no strength.

Protein sequences, listed by entry. Tags and fused reporters are not part of them. Lines headed by an entry give the natural chain unless they say otherwise; changes in a name come on top. Chains listed by the source or under a name are the forms on record and can include a tag or linker. Residues count along the entry.
UniProt P51451: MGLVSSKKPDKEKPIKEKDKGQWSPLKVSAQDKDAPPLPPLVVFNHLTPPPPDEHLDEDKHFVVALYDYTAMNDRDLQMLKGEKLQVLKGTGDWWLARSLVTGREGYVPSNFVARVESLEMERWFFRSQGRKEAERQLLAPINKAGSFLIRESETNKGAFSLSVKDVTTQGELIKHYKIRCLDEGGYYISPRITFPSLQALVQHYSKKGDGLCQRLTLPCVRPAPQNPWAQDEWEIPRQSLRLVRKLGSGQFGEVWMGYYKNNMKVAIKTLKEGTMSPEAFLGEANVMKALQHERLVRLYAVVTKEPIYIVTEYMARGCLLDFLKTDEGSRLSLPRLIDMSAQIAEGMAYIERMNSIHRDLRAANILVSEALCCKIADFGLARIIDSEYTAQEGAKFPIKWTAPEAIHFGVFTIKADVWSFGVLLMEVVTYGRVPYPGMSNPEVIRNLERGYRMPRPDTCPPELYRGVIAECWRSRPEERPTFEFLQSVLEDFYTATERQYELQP
UniProt P42685: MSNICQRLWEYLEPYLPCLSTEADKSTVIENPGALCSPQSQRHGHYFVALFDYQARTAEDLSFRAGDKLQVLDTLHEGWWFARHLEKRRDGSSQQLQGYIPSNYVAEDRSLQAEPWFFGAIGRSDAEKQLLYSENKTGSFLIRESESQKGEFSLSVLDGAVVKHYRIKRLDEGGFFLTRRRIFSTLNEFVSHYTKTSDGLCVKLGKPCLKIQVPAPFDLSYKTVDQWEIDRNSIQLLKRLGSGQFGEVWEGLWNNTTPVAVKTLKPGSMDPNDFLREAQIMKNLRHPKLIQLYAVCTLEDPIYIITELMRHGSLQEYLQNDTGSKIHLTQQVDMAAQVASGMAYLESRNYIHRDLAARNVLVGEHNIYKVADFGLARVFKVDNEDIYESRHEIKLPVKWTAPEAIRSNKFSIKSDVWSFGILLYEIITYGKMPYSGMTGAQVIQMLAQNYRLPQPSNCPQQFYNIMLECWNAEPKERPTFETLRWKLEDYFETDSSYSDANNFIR
UniProt P06241: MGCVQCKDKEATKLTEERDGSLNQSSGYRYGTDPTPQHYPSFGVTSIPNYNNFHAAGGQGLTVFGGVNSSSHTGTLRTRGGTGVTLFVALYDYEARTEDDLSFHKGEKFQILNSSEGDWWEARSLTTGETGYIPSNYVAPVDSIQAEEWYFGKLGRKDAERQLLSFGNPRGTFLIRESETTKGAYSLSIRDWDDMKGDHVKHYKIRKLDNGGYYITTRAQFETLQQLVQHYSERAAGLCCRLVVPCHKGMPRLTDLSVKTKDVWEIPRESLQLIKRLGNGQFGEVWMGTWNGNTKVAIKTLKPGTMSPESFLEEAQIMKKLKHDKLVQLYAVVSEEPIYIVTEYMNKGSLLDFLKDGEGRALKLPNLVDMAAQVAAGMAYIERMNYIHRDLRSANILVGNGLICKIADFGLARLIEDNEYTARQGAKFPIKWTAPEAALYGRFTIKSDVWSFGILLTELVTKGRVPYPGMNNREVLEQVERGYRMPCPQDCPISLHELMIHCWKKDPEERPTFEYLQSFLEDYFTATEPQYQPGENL
FYN (isoform without exon 7), N1-fused (P06241, form named): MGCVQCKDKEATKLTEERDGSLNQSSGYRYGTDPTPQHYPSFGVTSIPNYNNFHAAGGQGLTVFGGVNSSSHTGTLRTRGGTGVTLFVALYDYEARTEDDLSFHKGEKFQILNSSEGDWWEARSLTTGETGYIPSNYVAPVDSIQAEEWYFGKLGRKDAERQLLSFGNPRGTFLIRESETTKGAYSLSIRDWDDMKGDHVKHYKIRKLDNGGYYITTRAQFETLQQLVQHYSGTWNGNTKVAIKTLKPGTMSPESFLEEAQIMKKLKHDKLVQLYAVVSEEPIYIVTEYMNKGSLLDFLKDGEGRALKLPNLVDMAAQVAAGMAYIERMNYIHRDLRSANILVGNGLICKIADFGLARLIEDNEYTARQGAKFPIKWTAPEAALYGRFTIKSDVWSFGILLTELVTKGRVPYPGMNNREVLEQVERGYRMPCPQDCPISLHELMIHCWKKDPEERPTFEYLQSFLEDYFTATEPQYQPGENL
HCK wild type, N1-fused (P08631, residues 22-526): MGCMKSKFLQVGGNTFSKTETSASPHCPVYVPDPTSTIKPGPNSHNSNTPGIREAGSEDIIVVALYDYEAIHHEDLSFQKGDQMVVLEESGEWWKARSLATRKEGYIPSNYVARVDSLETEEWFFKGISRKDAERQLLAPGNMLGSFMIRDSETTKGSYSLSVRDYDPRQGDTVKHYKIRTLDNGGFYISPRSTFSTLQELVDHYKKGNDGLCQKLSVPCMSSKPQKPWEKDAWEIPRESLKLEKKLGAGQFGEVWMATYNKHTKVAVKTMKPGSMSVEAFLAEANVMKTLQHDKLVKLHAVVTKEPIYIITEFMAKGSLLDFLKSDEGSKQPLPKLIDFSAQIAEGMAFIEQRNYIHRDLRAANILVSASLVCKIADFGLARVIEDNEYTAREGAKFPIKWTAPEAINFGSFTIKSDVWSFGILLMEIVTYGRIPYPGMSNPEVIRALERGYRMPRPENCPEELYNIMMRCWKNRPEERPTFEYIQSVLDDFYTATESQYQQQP
HCK R150A mutant, C1-fused (P08631, form named): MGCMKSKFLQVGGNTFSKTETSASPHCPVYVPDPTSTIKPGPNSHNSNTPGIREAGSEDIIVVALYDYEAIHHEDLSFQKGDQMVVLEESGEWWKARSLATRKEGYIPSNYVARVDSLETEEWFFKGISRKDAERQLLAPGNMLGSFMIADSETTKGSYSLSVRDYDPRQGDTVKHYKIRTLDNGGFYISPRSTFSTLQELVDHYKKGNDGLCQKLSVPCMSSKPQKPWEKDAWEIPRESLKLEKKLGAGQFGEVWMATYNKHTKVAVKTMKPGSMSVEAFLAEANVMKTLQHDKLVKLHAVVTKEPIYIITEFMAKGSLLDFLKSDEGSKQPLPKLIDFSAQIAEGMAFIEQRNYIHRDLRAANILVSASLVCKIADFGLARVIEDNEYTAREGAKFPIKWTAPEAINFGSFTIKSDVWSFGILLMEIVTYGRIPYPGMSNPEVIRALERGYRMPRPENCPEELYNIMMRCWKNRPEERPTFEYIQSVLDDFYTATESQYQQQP
UniProt P06239: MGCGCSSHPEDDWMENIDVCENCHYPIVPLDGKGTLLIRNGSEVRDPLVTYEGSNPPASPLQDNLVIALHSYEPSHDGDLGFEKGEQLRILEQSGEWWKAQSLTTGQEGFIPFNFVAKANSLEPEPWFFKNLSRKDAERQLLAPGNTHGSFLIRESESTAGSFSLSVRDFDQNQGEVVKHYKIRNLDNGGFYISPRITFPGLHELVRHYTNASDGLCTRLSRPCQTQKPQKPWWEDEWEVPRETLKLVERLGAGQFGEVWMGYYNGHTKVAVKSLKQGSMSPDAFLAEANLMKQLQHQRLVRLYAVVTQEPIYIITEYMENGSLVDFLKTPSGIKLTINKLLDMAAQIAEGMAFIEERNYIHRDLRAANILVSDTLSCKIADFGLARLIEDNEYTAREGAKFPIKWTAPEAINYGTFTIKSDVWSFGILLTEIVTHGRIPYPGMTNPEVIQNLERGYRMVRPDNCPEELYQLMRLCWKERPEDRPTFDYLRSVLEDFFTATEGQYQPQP
UniProt P07948: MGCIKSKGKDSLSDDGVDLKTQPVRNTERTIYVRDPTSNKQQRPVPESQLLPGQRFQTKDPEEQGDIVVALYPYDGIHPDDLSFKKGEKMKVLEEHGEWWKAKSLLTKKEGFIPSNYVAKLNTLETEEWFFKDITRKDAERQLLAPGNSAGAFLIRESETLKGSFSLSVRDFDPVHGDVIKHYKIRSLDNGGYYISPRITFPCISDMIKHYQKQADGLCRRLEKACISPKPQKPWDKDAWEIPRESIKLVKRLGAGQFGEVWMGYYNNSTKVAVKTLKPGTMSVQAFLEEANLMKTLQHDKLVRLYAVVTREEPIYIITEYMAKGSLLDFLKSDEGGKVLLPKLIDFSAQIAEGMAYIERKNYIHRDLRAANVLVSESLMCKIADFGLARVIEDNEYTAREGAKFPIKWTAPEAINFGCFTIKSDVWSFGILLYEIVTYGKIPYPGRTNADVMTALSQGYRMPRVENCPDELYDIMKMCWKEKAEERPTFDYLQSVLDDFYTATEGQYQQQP
UniProt P07947: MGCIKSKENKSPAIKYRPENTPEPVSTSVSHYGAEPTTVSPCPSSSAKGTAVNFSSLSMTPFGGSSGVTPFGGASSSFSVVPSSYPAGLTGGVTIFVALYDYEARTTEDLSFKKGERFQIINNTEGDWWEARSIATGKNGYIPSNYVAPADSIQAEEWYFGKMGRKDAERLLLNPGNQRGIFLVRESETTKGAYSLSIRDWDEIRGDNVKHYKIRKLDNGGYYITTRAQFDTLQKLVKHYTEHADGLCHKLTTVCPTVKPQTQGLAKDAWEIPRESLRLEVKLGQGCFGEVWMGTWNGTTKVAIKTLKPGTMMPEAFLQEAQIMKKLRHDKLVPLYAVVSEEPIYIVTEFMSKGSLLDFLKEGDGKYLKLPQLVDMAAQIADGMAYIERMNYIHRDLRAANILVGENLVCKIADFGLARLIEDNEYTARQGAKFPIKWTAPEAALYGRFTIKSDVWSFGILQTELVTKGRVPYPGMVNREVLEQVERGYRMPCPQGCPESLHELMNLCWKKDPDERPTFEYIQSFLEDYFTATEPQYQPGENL
UniProt O75563: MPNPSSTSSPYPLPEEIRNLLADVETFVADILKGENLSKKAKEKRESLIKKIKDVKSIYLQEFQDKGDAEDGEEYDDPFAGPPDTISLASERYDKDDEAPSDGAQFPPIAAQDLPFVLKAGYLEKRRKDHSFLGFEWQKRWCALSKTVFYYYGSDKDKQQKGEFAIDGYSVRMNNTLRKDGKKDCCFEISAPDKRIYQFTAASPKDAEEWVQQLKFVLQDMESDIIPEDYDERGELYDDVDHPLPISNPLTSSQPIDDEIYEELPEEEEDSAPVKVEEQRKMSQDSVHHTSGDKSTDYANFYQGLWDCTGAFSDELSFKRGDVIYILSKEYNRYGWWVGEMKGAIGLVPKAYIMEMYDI
UniProt Q86WV1: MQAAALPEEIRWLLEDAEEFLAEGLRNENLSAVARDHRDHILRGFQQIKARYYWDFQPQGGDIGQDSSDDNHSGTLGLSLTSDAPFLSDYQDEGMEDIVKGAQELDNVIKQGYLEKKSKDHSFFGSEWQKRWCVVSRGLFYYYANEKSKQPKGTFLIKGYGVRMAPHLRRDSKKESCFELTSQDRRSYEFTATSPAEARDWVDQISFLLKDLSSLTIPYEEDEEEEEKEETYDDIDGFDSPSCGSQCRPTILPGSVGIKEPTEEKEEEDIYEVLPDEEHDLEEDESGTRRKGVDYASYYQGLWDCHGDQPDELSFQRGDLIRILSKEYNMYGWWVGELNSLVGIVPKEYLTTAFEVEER

Assays:
Assay in all cases: split reporter; Gaussia princeps luciferase complementation assay in human HEK293T cells; Gluc2 at the N terminus of SKAP1 or SKAP2 (N2), Gluc1 at the N terminus (N1) or C terminus (C1) of the SRC kinase; 100 ng plasmid pair, PEI; luminescence read in lysate one day later; normalized luminescence ratio (NLR), given relative to wild type or to SKAP2
BLK, C1-fused = BLK, C1-fused (UniProt P51451)
BLK, N1-fused = BLK, N1-fused (UniProt P51451)
FGR, C1-fused = FGR, C1-fused (UniProt P09769)
FGR, N1-fused = FGR, N1-fused (UniProt P09769)
FRK, N1-fused = FRK, N1-fused (UniProt P42685)
[1] = target: FYN (isoform without exon 7), N1-fused (UniProt P06241)
[2] = target: FYNB isoform of FYN, N1-fused (UniProt P06241)
[3] = target: HCK R150A mutant, C1-fused (UniProt P08631)
HCK wild type, C1-fused = HCK wild type, C1-fused (UniProt P08631)
HCK wild type, N1-fused = HCK wild type, N1-fused (UniProt P08631)
[4] = target: LCK R154A mutant, C1-fused (UniProt P06239)
LYN, N1-fused = LYN, N1-fused (UniProt P07948)
YES, C1-fused = YES, C1-fused (UniProt P07947)
YES, N1-fused = YES, N1-fused (UniProt P07947)

Measured: binding

SRC kinase associated phosphoprotein 2 (SKAP2), wild type, N2-fused (from UniProt O75563 1-359)
binds: all assays above

SRC kinase associated phosphoprotein 1 (SKAP1), wild type, N2-fused (from UniProt Q86WV1 1-359)
binds: all assays above
